Test results: article PMC10454406
These are yes or no findings as the source states them, for the method shown. Binding seen in cells or lysates may run through a third protein. Where a sequence is shown, tags or fusion partners need not be part of it.

Chains of the proteins cited; added tags and fusions are not shown. Lines headed by an entry give the natural chain unless they say otherwise; changes in a name come on top.
UniProt O00560, whole entry: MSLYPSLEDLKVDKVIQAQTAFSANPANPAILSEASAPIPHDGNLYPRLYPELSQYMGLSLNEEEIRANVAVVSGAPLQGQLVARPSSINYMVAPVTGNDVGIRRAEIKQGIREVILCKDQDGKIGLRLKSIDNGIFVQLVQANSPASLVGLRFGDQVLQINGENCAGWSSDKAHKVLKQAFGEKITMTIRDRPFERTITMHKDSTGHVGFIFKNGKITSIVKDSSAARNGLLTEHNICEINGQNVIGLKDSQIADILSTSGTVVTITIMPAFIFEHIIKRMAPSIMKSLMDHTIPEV

B1: Myc-ZO-2 (protein, UniProt Q9UDY2 1-1190)
chain: MPVRGDRGFPPRRELSGWLRAPGMEELIWEQYTVTLQKDSKRGFGIAVSGGRDNPHFENGETSIVISDVLPGGPADGLLQENDRVVMVNGTPMEDVLHSFAVQQLRKSGKVAAIVVKRPRKVQVAALQASPPLDQDDRAFEVMDEFDGRSFRSGYSERSRLNSHGGRSRSWEDSPERGRPHERARSRERDLSRDRSRGRSLERGLDQDHARTRDRSRGRSLERGLDHDFGPSRDRDRDRSRGRSIDQDYERAYHRAYDPDYERAYSPEYRRGARHDARSRGPRSRSREHPHSRSPSPEPRGRPGPIGVLLMKSRANEEYGLRLGSQIFVKEMTRTGLATKDGNLHEGDIILKINGTVTENMSLTDARKLIEKSRGKLQLVVLRDSQQTLINIPSLNDSDSEIEDISEIESNRSFSPEERRHQYSDYDYHSSSEKLKERPSSREDTPSRLSRMGATPTPFKSTGDIAGTVVPETNKEPRYQEDPPAPQPKAAPRTFLRPSPEDEAIYGPNTKMVRFKKGDSVGLRLAGGNDVGIFVAGIQEGTSAEQEGLQEGDQILKVNTQDFRGLVREDAVLYLLEIPKGEMVTILAQSRADVYRDILACGRGDSFFIRSHFECEKETPQSLAFTRGEVFRVVDTLYDGKLGNWLAVRIGNELEKGLIPNKSRAEQMASVQNAQRDNAGDRADFWRMRGQRSGVKKNLRKSREDLTAVVSVSTKFPAYERVLLREAGFKRPVVLFGPIADIAMEKLANELPDWFQTAKTEPKDAGSEKSTGVVRLNTVRQIIEQDKHALLDVTPKAVDLLNYTQWFPIVIFFNPDSRQGVKTMRQRLNPTSNKSSRKLFDQANKLKKTCAHLFTATINLNSANDSWFGSLKDTIQHQQGEAVWVSEGKMEGMDDDPEDRMSYLTAMGADYLSCDSRLISDFEDTDGEGGAYTDNELDEPAEEPLVSSITRSSEPVQHEESIRKPSPEPRAQMRRAASSDQLRDNSPPPAFKPEPPKAKTQNKEESYDFSKSYEYKSNPSAVAGNETPGASTKGYPPPVAAKPTFGRSILKPSTPIPPQEGEEVGESSEEQDNAPKSVLGKVKIFEKMDHKARLQRMQELQEAQNARIEIAQKHPDIYAVPIKTHKPDPGTPQHTSSRPPEPQKAPSRPYQDTRGSYGSDAEEEEYRQQLSEHSKRGYYGQSARYRDTEL

Biological target: GFP-SARS-CoV-2 E protein lacking the PBM (stop mutant) (SARS-CoV-2) (UniProt P0DTC4)
Assay: co-IP

| Molecule | binding |
| --- | --- |
| HA-syntenin (from UniProt O00560 1-298) | no binding |
| B1 | no binding |
